Literature values as cited in patent US5166208A, “Fredericamycin A derivatives” (Boston College, priority 1991, dated 1992).
At least one compound was matched to its structure with a doubt left.

Details: cited from earlier work

For `C/C=C/C=C/c1cc2cc3c(c(O)c2c(=O)[nH]1)-c1c(O)c2c(c(O)c1CC3)C(=O)c1c(O)c(OC)cc(O)c1C2=O` [fredericamycins B], the biological activity is given as “biologically inactive”.
For `C/C=C/C=C/C(=O)Cc1cc2c(c(O)c1C(=O)O)-c1c(O)c3c(c(O)c1CC2)C(=O)c1c(O)c(OC)cc(O)c1C3=O` [fredericamycins C], the biological activity is given as “biologically inactive”.
